Measured values as given in PMC13064845.
These are yes or no findings as the source states them, for the method shown. In cells and extracts the contact can be indirect. Some binding calls cover weakened binding; strength is not graded here. Tags and fused reporters may be left off the sequences shown.

Sequences of proteins named here, by UniProt entry; tags and fusion partners are left off. Residues count along the entry.
UniProt P35441, residues 19-1170: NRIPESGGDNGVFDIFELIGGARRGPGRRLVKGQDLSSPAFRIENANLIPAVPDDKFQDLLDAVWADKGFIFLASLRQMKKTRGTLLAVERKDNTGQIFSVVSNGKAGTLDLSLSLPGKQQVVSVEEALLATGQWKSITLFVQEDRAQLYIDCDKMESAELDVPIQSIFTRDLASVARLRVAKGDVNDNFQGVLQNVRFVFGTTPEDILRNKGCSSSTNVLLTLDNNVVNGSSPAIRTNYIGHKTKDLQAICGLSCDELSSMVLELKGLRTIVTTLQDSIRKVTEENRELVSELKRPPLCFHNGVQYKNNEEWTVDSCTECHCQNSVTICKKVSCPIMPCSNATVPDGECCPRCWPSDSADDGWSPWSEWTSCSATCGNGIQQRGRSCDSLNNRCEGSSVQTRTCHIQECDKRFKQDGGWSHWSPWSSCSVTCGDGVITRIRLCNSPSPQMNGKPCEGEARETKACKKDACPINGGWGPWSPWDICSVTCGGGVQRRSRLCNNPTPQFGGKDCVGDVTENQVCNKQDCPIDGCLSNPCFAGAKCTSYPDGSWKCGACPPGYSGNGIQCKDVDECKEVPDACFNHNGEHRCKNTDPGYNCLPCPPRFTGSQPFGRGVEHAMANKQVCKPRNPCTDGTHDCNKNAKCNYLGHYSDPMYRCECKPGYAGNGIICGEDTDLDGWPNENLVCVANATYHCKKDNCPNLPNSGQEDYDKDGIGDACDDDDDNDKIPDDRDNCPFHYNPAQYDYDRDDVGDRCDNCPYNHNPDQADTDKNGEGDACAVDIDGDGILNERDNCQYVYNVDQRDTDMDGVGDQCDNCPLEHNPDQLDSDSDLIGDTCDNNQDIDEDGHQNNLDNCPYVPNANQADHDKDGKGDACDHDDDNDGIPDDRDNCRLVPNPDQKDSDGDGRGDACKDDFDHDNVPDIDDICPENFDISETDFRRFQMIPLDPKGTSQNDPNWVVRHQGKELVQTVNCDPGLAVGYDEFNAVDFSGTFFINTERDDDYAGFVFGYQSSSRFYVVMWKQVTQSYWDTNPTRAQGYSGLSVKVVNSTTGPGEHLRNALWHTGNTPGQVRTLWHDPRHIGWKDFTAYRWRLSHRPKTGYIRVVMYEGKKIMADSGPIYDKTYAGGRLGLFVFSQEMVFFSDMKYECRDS

How the values were obtained:
[1] = molecular target: T1, Flag-FBLN7 (LV-FBLN7) in SVF cells (UniProt Q501P1); assay: co-IP; IP of Flag from SVF cells (ASPCs) infected with Flag-empty control (LV-Ctrl) or Flag-FBLN7 (LV-FBLN7), followed by immunoblot
T1 sequence: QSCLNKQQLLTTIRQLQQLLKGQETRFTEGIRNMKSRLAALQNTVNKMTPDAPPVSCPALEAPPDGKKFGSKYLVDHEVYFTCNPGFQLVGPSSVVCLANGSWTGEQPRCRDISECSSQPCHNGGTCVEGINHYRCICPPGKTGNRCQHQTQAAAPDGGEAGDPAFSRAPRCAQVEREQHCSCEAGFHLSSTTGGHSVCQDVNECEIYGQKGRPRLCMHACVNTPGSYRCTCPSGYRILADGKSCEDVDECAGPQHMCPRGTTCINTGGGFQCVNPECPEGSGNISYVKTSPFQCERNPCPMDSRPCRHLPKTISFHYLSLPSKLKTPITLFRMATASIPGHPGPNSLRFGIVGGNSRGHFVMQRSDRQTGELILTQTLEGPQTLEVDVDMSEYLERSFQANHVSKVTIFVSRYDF

[2] = molecular target: T2, full-length FBLN7-Flag (UniProt Q501P1); assay: co-IP; HEK293T cells co-transfected with HA-tagged TSP1 and FBLN7-Flag (full length, deletion mutants or point mutants); precipitated in both directions for the full-length protein
T2 sequence: T1 sequence

Substance	binding [1]	binding [2]
TSP1 of SVF cells (ASPCs) (from UniProt P35441 19-1170)	binds	
HA-tagged TSP1 (from UniProt P35441 19-1170)		binds
